Data from paper PMC7186457.
Construct, isoform or probe ends are uncertain for at least one entry.

Biological target: FLAG-L4 (ribosomal protein L4) (Escherichia coli (expressed in BL21(DE3) rne131)) (UniProt P60723)
Assay: EMSA
Details: EMSA: 30 C, 20 min, native 5% PAGE, ~2 ng RNA, 0.7-5.5 uM L4, buffer not given (cited method); recombinant protein; protein details: N-terminal FLAG; label: internal [alpha-32P]UTP; probe letters rebuilt from the primers and the genome

## GGGUUGCCCUUCUGUAGCCAUCACCAGAGCCAAACCGAUUAGAUUCAAUGUGAUCUAUUUGUUUGCUAUAUCUUAAUUUUGCCUUUUGCAAAGGUCAUCUCUCGUUUAUUUACUUGUUUUAGUAAAUGAUGGUGCUUGCAUAUAUAUCUGGCGAAUUAAUCGGUAUAGCAGAUGUAAUAUUCACAGGGAUCACUGUAAUUAAAAUAAAUGAAGGAUUAUGUAAUGGAAAACUUUAAACAUCUCCCUGAACCGUUC [tnaC-tnaA transcribed spacer RNA (gel shift)]
  Kd: 2100 nM
